Experimental data from PubChem BioAssay AID540276 (National Center for Advancing Translational Sciences (NCATS), 2011).
Where “and” joins values, the source holds several entries; their conditions need not be identical. Identical values can stand only once. Among all 300,000 compounds or so, about 5,400 (1.8%) were called active. Inconclusive means that the source gave no clear call. Such entries were picked first, then a sample of the others. Calls come from the whole dose curve; tested in HEK293 cells. Where the call is inconclusive, the potency comes from a doubtful curve fit.

test: qHTS for inhibitors of binding or entry into cells for Marburg Virus; details: Marburg virus pseudotyped entry inhibition, cell reporter; series mostly up to 37.8 µM
Potency is the fitted concentration of half-maximal effect.

SMILES | Potency
COc1ccccc1NC(=O)c1ccc(NC(=O)CSc2ncccn2)cc1 | inconclusive: 6.31 µM [activator, single point]
Cc1ccc(S(=O)(=O)[N-]c2nc3ccccc3nc2-n2cc[n+](Cc3ccccc3)c2)cc1 | inactive
COc1ccc(CC(=O)N2CCN(C(=O)Cc3ccc(OC)cc3)CC2)cc1 | inactive
Cc1ccc(N(Cc2cccs2)C(=O)COc2cccc(C)c2)cc1 | inconclusive: 35.5 µM [inhibitor, single point]
Clc1cccc(N2CCNCC2)c1Cl | inconclusive: 29.1 µM [inhibitor, single point]
COc1ccc(-c2nsc(NC(=O)c3oc4cc(C)c(C)cc4c3C)n2)cc1 | inactive
CCC1Sc2ccc(S(=O)(=O)CCC(=O)N3CCc4ccccc43)cc2NC1=O (configuration not stated) | inactive
CNC(=S)N1N=C(c2ccc(C)cc2)CC1c1ccc(Cl)cc1 (configuration not stated) | inconclusive: 18.3 µM [inhibitor, single point]
C=CCNC(=S)NNC(=O)c1cccn(Cc2cccc(Cl)c2)c1=O | inconclusive: 0.013 µM [activator, full curve, poor fit]
Cc1nn(CC(=O)N2CCOCC2)c(C)c1[N+](=O)[O-] | inconclusive: 0.0891 µM [activator, full curve, poor fit]
O=C(CCCOc1ccccc1)N1CCc2ccccc2C1 | inconclusive: 5.01 µM [activator, full curve, poor fit]
C=C(C)c1cccc(C(C)(C)NC(=O)NCc2ccncc2)c1 | inconclusive: 3.16 µM [inhibitor, single point]
CCCN(CCC)CCCNC(=S)Nc1ccc2nc3n(c(=O)c2c1)CCCCC3 | inconclusive: 35.5 µM [inhibitor, single point]
COc1cccc(CCNC(=O)c2ccc(C#N)cc2)c1 | inconclusive: 5.01 µM [activator, full curve, poor fit]
O=C1CSc2ccccc2N1Cc1ccc(F)cc1 | inactive
Cc1cccc(OCc2n[nH]c(=S)n2C2CCCCC2)c1 | inconclusive: 14.6 µM [inhibitor, partial curve, poor fit]
O=C1/C(=C2/NCCN2C2CC(=O)N(c3ccccc3)C2=O)CC/C1=C\c1ccccc1 (configuration not stated) | inconclusive: 6.31 µM [inhibitor, single point]
CCCC(=O)N(CCN(Cc1ccccc1)C(=O)CCC)Cc1ccccc1 | inconclusive: 7.08 µM [inhibitor, full curve, poor fit]
COc1ccccc1N1CCN(C(=O)Cn2ncc3c(=O)oc4ccc(C)cc4c32)CC1 | inconclusive: 35.5 µM [inhibitor, single point]
CC(C)(C)c1ccc(-c2nc3cc(N)ccc3o2)cc1 | inconclusive: 3.98 µM [inhibitor, full curve]
CC(C)(C)OC(=O)N1CCC(c2c(C(=O)NCC3CCN(C4CCCC4)C3)cnn2-c2cccc(Cl)c2)CC1 (configuration not stated) | inconclusive: 4.47 µM [inhibitor, partial curve, poor fit]

SMILES | Potency
CN(C)S(=O)(=O)c1cccc(C(=O)Nc2cc(Cl)ccc2O)c1 | inactive
O=C(CSC1=Nc2ccccc2C2CC=NN12)Nc1ccc2c(c1)OCO2 (configuration not stated) | inconclusive: 35.5 µM [inhibitor, single point]
N#CC1=C(Nc2ccccc2)SC=C(c2ccc(Br)cc2)N=C1N1CCOCC1 | inconclusive: 35.5 µM [inhibitor, partial curve, poor fit]
CC(C)(Oc1ccc(Cl)cc1)C(=O)NCC(c1ccco1)N1CCCCC1 (configuration not stated) | inconclusive: 35.5 µM [inhibitor, single point]
C=Cn1c(P(=S)(N2CCOCC2)N2CCOCC2)cc2c1CCCC2 | inactive
CCOC(=O)C1=C(C)NC(=S)NC1c1cccs1 (configuration not stated) | inconclusive: 5.62 µM [inhibitor, single point]
C=CCN(CC=C)S(=O)(=O)c1ccc2nc(NC(=O)C3CCCO3)sc2c1 (configuration not stated) | inconclusive: 0.316 µM [inhibitor, partial curve, poor fit]
O=C(O)c1cc(-c2ccc(/C=N/Nc3ccc([N+](=O)[O-])cn3)o2)ccc1Cl | inconclusive: 0.891 µM [activator, full curve, poor fit]
c1ccc(C2CN3CCSC3=N2)cc1 (configuration not stated) | inconclusive: 3.26 µM [activator, single point] and inconclusive: 562 nM [inhibitor, full curve, poor fit]
C=CCOc1ccc(/C=C/C(=O)OCC(=O)NCc2cccc(OC)c2)cc1 | inconclusive: 0.1 µM [activator, full curve, poor fit]
COc1ccc(C(=O)NCCCNC(=O)c2ccccn2)cc1 | inactive
O=C(Oc1ccc(C(=S)N2CCOCC2)cc1)c1ccc(Br)cc1 | inactive
O=C(Nc1cccc(F)c1)/C(=C\c1cccnc1)NC(=O)c1cccs1 | inactive
CCCN1CCc2c(sc3nc(SCC)n(-c4ccccc4)c(=O)c23)C1 | inconclusive: 10 µM [inhibitor, partial curve, poor fit]
N=c1n(CCN2CCCCC2)c2ccccc2n1CC(O)c1cccc(Br)c1 (configuration not stated) | active: 11.2 µM
CCC(=O)NCCc1nc2cc(NC(=O)c3ccc(Cl)cc3)ccc2n1C | inconclusive: 0.562 µM [activator, full curve, poor fit]
CCOC(=O)c1cnc2ccc(OCC)cc2c1N1CCN(c2ccccc2OC)CC1 | inconclusive: 20 µM [inhibitor, partial curve, poor fit]
CCOC(=O)N1CCN(c2nc3ccccc3nc2C(C#N)C(=O)NCCc2ccccc2)CC1 (configuration not stated) | inactive
CC(=O)NC1=NN(C(C)=O)C(c2cccc([N+](=O)[O-])c2)S1 (configuration not stated) | inactive
CCN1C(=O)N(C(C)=O)C2C1N(C(C)=O)C(=O)N2C(C)=O (configuration not stated) | inconclusive: 1.26 µM [inhibitor, partial curve, poor fit]
CC(OC(=O)c1cc(S(=O)(=O)N2CCOCC2)ccc1F)C(=O)NC1CCCCC1C (configuration not stated) | inconclusive: 14.1 µM [activator, single point]
